The values that follow come from PubChem BioAssay AID493014 (National Center for Advancing Translational Sciences (NCATS), 2011).

A short description of this test: qHTS Assay to Find Inhibitors of Chronic Active B-Cell Receptor Signaling. As to conditions: ABC-DLBCL IkBa-CBG/CBR reporter, luminescence ratio (green luciferase fused to IkBa over red control in TMD8 lymphoma cells), 4 h. Put shortly:
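Concentration-response series (up to 46 uM) were applied to TMD8 dual-reporter cells for 4 h at 37C with doxycycline. Green/red ratio, after filter-overlap correction, defined %Activity; red signal alone was normalised to basal cells and zero luminescence.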
In general terms: In qHTS, concentration-response curves come from the screen itself.

Where [1] appears, read: measured here: CBR red luminescence, cell number.
Where [2] appears, read: measured here: IkBa-CBG green luminescence.

Where “and” joins values, the source holds several entries; their conditions need not be identical. Equal entries are not always repeated. The list shows a part of the results. Shown are side measurements of this screen, not its main read-out; they come without a call. Compounds called inactive in the main read-out are mostly missing here. Words in brackets tell the shape of the fitted curve; partial curves, single points and poor fits give uncertain potencies.

Regarding `CCOC(=O)c1ccc(S(=O)(=O)N2CCN(CC(=O)NC(=O)NC3CCCCC3)CC2)cc1`, under setting [1], the AC50 is 0.501 µM [falling, full curve, poor fit]. Consider `Cc1cc(C(=O)OCC(=O)c2cccc([N+](=O)[O-])c2)c2ccccc2n1`, for which, under setting [1], the half-maximal activity concentration (AC50) is 16.4 µM [falling, partial curve, poor fit]. In the case of `COCCn1c(-c2ccc(OC)cc2)cnc1SCC(=O)Nc1cccc2ccccc12`, under setting [1], the half-maximal activity concentration (AC50) was 29.1 µM [falling, single point]. On the same count and under the same terms, then `O=C(N/N=C/c1ccncc1)c1cccc(NC(=O)c2ccccc2Cl)c1`, with 5.8 µM [falling, full curve]; and `CCOC(=O)c1c(CN2CCCCC2)oc2ccc(OC)cc12`, with 17.8 µM [rising, single point]. The same measure, in the same setting: then `COc1cc(C(=O)N2CCN(Cc3ccccc3C(F)(F)F)CC2)cc(OC)c1OC`, with 3.55 µM [rising, single point]; and `O=C(CSC1=NS(=O)(=O)c2cc(F)ccc2N1)Nc1cccc(F)c1`, with 23.1 µM [falling, partial curve, poor fit]; and `CC(Oc1ccc(F)cc1)C(=O)N(Cc1ccccc1)c1c(N)n(Cc2ccccc2)c(=O)[nH]c1=O` (configuration not stated), with 29.1 µM [falling, single point]. For the compound `Cc1cc(C(=O)CN2C(=O)c3ccccc3C2=O)c(C)n1C1CC1`, under setting [1], the AC50 is 8.91 µM [falling, full curve, poor fit]. On the same count and under the same terms, then `COc1cc(CCC(=O)Nc2ccc(S(=O)(=O)N3CCOCC3)cc2)cc(OC)c1OC`, with 23.1 µM [rising, single point]; and `O=C(CCCN1C(=O)/C(=C/c2ccccc2)SC1=S)Nc1ccc(C(=O)O)c(O)c1`, with 11.2 µM [falling, partial curve, poor fit]; and `CN(C)c1nc(Oc2ccc(N)cc2)nc(N(C)C)n1`, with 29.1 µM [rising, single point]. For `O=C(c1ccc(S(=O)(=O)N2CCCCCC2)cc1)N1CCN(Cc2ccccc2)CC1`, the AC50 under setting [1] was 3.66 µM [rising, partial curve, poor fit]. For the compound `O=C(CN1C(=O)S/C(=C\C=C\c2ccccc2)C1=O)Nc1ccc(O)cc1`, the concentration at half-maximal activity (AC50) was 20.6 µM [falling, single point] under setting [1] and 20.6 µM [falling, single point] under setting [2]. Regarding `Cc1ccccc1-c1noc(-c2ccccc2C(=O)O)n1`, the AC50 under setting [1] is 12.6 µM [falling, partial curve, poor fit]. On the same count and under the same terms, then `O=C(O/N=C1/CCSc2ccccc21)c1ccc(F)cc1`, with 3.55 µM [falling, partial curve, poor fit]. Same read-out and setting: then `O=C(CSc1nnc(SCc2cccc3ccccc23)s1)Nc1ccc(C(=O)O)cc1`, with 12.6 µM [falling, partial curve, poor fit]; and `Cc1ccc(NC2CCCN(C(=O)c3cn(C)c4ccccc34)C2)cc1C` (configuration not stated), with 2.51 µM [rising, partial curve, poor fit]; and `CCCCSc1nnc2c(n1)OC(C(=O)c1ccccc1)Nc1ccccc1-2` (configuration not stated), with 14.6 µM [falling, single point].

In the case of `COc1cc(C(=O)Nc2nc(C)c(Cc3ccc4c(c3)OCO4)s2)cc(OC)c1OC`, the AC50 under setting [2] was 6.51 µM [falling, partial curve].

In the case of `CC(C)c1nc(-c2ccc([N+](=O)[O-])cc2)cs1`, under setting [1], the AC50 is 16.4 µM [rising, partial curve]. Turning to `Cn1c(SCC(=O)NCC2CCCO2)nnc1-c1ccco1` (configuration not stated), under setting [1], the concentration at half-maximal activity (AC50) is 0.82 µM [rising, full curve, poor fit]. For the compound `Cc1ccccc1CN1C(=O)C(O)(CC(=O)c2ccccc2)c2cc(Cl)ccc21` (configuration not stated), the half-maximal activity concentration (AC50) under setting [1] was 35.5 µM [falling, single point]. Same read-out and setting: then `CCOc1ccc(N2C(=O)C(c3ccccc3)=C(c3nc4ccccc4s3)C2NC(C)=O)cc1` (configuration not stated), with 13 µM [falling, partial curve]. With `Cc1ccccc1OCc1n(CC(=O)OC2CC(C)CCC2C(C)C)c2ccccc2[n+]1C` (configuration not stated), the concentration at half-maximal activity (AC50) runs as follows: under setting [1], 10 µM [falling, partial curve, poor fit] and 35.5 µM [falling, single point]; under setting [2], 35.5 µM [rising, partial curve, poor fit]. As to `COc1cc2nc(Nc3ccc(C)c(Cl)c3)nc(N)c2cc1OC`, under setting [1], the AC50 was 3.55 µM [falling, full curve, poor fit]. In the case of `NC(=O)CSc1ncnc2c1oc1ccccc12`, the half-maximal activity concentration (AC50) under setting [1] was 1.64 µM [rising, partial curve, poor fit]. On the same count and under the same terms, as for `COc1cc(C(=O)NCC(=O)OCC(=O)c2ccc[nH]2)cc(OC)c1OC`, the figure is 8.2 µM [rising, partial curve, poor fit]. Same read-out and setting: as for `COc1ccc(-n2nc3c(c2NC(=O)c2ccc(S(=O)(=O)N4CCOCC4)cc2)CS(=O)C3)cc1` (configuration not stated), the figure is 35.5 µM [falling, partial curve, poor fit]; as for `CC(=O)Nc1ccc(-c2csc(Nc3ccccn3)n2)cc1`, 12.6 µM [falling, partial curve]; as for `Cc1nc(NC(=O)c2ccco2)sc1C(=O)Nc1ccc(Br)cc1`, 0.631 µM [falling, full curve, poor fit].

Turning to `Cc1ccc(-c2nc3c(c(=O)[nH]c(=O)n3Cc3ccccc3)n2Cc2ccccc2)o1`, the AC50 under setting [1] is 35.5 µM [falling, single point].

For the compound `O=C(CCCN1C(=O)c2ccccc2C1=O)N1CCC(c2ccccc2)C1` (configuration not stated), the AC50 under setting [1] was 6.51 µM [rising, single point]. Take `CCOc1cc(C#N)c(NC(=O)c2cccnc2)cc1OCC`: the AC50 reads like this: under setting [1], 20 µM [rising, single point]; under setting [2], 12.6 µM [falling, single point]. For `O=C(O)CSc1nnc(SCc2cccc3ccccc23)s1`, the AC50 under setting [1] was 13 µM [falling, partial curve, poor fit]. As to `CCn1c(SCC(=O)Nc2nc3c(s2)CCCC3)nnc1-c1ccccc1`, the half-maximal activity concentration (AC50) under setting [1] was 11.2 µM [falling, partial curve, poor fit]. On to `COc1cc(Cl)c(C)cc1NC(=O)CN(C)Cc1cccc(OC)c1OC`, for which the AC50 under setting [1] is 35.5 µM [falling, single point] and the AC50 under setting [2] was 7.08 µM [rising, full curve, poor fit]. For the compound `CC(C)(O)c1cc(=O)sc2nc3ccccc3n12`, the AC50 under setting [1] was 1.46 µM [rising, partial curve, poor fit]. Regarding `COCCCNC(=O)c1c(N)n(-c2ccc3c(c2)OCO3)c2nc3ccccc3nc12`, the AC50 under setting [1] was 0.708 µM [falling, partial curve, poor fit].

Take `CC(C)(C)c1nc(SCC(=O)c2ccccc2)c2ccccc2n1`: the AC50 under setting [1] is 1.78 µM [falling, full curve]. For the compound `Cn1c(SCc2ccc(C#N)cc2)nnc1-c1ccncc1`, the half-maximal activity concentration (AC50) under setting [1] is 35.5 µM [rising, single point]. On the same count and under the same terms, as for `O=C(CN1CCCCCC1)Nc1ccc(F)c(F)c1F`, the figure is 10.3 µM [falling, partial curve]. The same measure, in the same setting: as for `CC(C)c1cc(C(=O)Nc2cccc(C(F)(F)F)c2)no1`, the figure is 5.8 µM [rising, partial curve]; as for `COc1ccc(C(C)=O)cc1CSc1nc2ccccc2c(=O)n1-c1ccccc1`, 0.164 µM [rising, full curve]. Regarding `Cc1ccc(S[C@@H](CCN2CC[C@H](C)CCC2=O)c2ccccc2)cc1`, under setting [2], the half-maximal activity concentration (AC50) was 12.6 µM [rising, partial curve, poor fit]. For the compound `Cc1nc2c(o1)CCc1ccccc1C2N1CCN(C)CC1` (configuration not stated), the AC50 under setting [1] is 35.5 µM [falling, single point]. The same measure, in the same setting: as for `CCc1ccc(/C(C)=N/NC(=O)c2ccccn2)cc1`, the figure is 35.5 µM [falling, single point]; as for `COc1ccc(CCNC(=O)CCC(=O)N2CCOc3ccc(C)cc32)cc1OC`, 2 µM [rising, single point]. In the case of `Cc1nc2cc3c(cc2c(C)c1C(=O)OC(C)C)OCO3`, the AC50 is, setting by setting: under setting [1], 1.46 µM [falling, full curve, poor fit]; under setting [2], 3.26 µM [rising, full curve, poor fit].

For the compound `NC(=S)N/N=C1\CCOc2ccc(Cl)cc21`, the half-maximal activity concentration (AC50) under setting [1] is 35.5 µM [falling, single point].

For the compound `O=C(Nc1ncc(S(=O)(=O)c2ccc([N+](=O)[O-])cc2)s1)c1cccc2ccccc12`, the AC50 under setting [1] is 0.731 µM [falling, full curve, poor fit]. Same read-out and setting: as for `CCn1c(SCC(=O)c2ccc(O)c(O)c2)nnc1-c1ccc(C)cc1`, the figure is 35.5 µM [falling, single point]; as for `COc1cccc(Nc2cc(C)c3ccccc3n2)c1`, 1 µM [rising, full curve, poor fit]; as for `CC(C)(C)NC(=O)Nc1nnc(SCC(=O)NC2CCCCC2)s1`, 2.91 µM [rising, single point]. For `COC(=O)c1[nH]c2ccc(C)cc2c1NC(=O)Oc1ccccc1`, the concentration at half-maximal activity (AC50) under setting [1] is 20.6 µM [falling, partial curve, poor fit]. Still for that read-out and setting: as for `O=C(O)CCCCNCc1ccccc1`, the figure is 3.66 µM [falling, single point]; as for `NNc1nc(-c2ccccc2)c2cc(Br)ccc2n1`, 10 µM [falling, partial curve, poor fit]. The same measure, in the same setting: then `O=C(NCCc1ccccc1)c1ccnc(/C=N/O)c1`, with 16.4 µM [falling, single point]; and `Cc1ccnc(NC(=O)c2cccc(NC(=O)CC3SC(N4CCCCC4)=NC3=O)c2)c1` (configuration not stated), with 6.51 µM [falling, partial curve, poor fit]; and `Nc1nc2nc(-c3ccc(F)cc3)cc(C(F)(F)F)n2n1`, with 7.94 µM [rising, partial curve, poor fit]. Still for that read-out and setting: as for `CCc1ccc(C2CC(c3cccc(OC)c3)n3nc(N)nc3N2)cc1` (configuration not stated), the figure is 29.1 µM [rising, single point]. For the compound `Cc1ccc(S(=O)(=O)NCCc2sc3nc(-c4ccccc4)nn3c2C)cc1C`, the AC50 under setting [2] is 7.08 µM [rising, partial curve, poor fit].

The AC50 is the concentration giving half of the maximal activity seen.
